Some entries share one result that the patent states for a list of compounds.
What was measured:
Type in all cases: in vivo
[1] = system: barley net blotch fungus (Pyrenophora teres); test: Barley net blotch control test, foliar spray on barley (Test Examples 3, 9); details: barley (MIKAMO GOLDEN), inoculated two days after spraying
[2] = system: kidney bean stem rot fungus (Sclerotinia sclerotiorum); test: Kidney bean stem rot control test, foliar spray on kidney bean (Test Examples 4, 10); details: kidney bean (NAGAUZURA INGEN), four days after inoculation
[3] = system: wheat leaf blotch fungus (Septoria tritici); test: Wheat leaf blotch control test, foliar spray on wheat (Test Examples 5, 11); details: 500 ppm, wheat (APOGEE), inoculated four days after spraying
[4] = system: barley scald fungus (Rhynchosporium secalis); test: Barley scald control test, foliar spray on barley (Test Example 14); details: 200 ppm, barley (MIKAMO GOLDEN), inoculated two days after spraying
[5] = system: cucumber powdery mildew fungus (Sphaerotheca fuliginea); test: Cucumber powdery mildew control test, foliar spray on cucumber (Test Examples 6, 12, Comparative Test Example); details: 500 ppm, cucumber (SAGAMI HANJIRO), 8 days after inoculation

Measured: area of lesion spots relative to that on an untreated plant

CCC(=NOCc1c(C)cccc1-n1nnn(C)c1=O)c1ccc(C(F)(F)F)cc1 [present compound 84, 1-{3-methyl-2-[1-(4-trifluoromethylphenyl)propylideneaminooxymethyl]phenyl}-4-methyl-1,4-dihydrotetrazol-5-one]
≤ 30%: [1]; 500 ppm | [2]; 500 ppm | [3] | [4] | [5]

CCCCCOc1cccc(C(C)=NOCc2c(C)cccc2-n2nnn(C)c2=O)c1 [present compound 85, 1-{3-methyl-2-[1-(3-pentyloxyphenyl)ethylideneaminooxymethyl]phenyl}-4-methyl-1,4-dihydrotetrazol-5-one]
≤ 30%: [1]; 500 ppm | [2]; 500 ppm | [3] | [4] | [5]

CCC#CCOc1cccc(C(C)=NOCc2c(C)cccc2-n2nnn(C)c2=O)c1 [present compound 88, 1-(3-methyl-2-{1-[3-(pentyn-2-yloxy)phenyl]ethylideneaminooxymethyl}phenyl)-4-methyl-1,4-dihydrotetrazol-5-one]
≤ 30%: [1]; 500 ppm | [2]; 200 ppm | [3] | [4] | [5]

CSc1cccc(-n2nnn(C)c2=O)c1CON=C(C)c1cccc(C(F)(F)F)c1 [present compound 92, 1-{3-methylthio-2-[1-(3-trifluoromethylphenyl)ethylideneaminooxymethyl]phenyl}-4-methyl-1,4-dihydrotetrazol-5-one]
≤ 30%: [1]; 500 ppm | [2]; 500 ppm | [3] | [4] | [5]

CC(=NOCc1c(Br)cccc1-n1nnn(C)c1=O)c1cccc(C(F)(F)F)c1 [present compound 93, 1-{3-bromo-2-[1-(3-trifluoromethylphenyl)ethylideneaminooxymethyl]phenyl}-4-methyl-1,4-dihydrotetrazol-5-one]
≤ 30%: [1]; 500 ppm | [2]; 500 ppm | [3] | [4] | [5]

CC(=NOCc1c(C)cccc1-n1nnn(C)c1=O)c1cccc2ccccc12 [present compound 95, 1-{3-methyl-2-[1-(naphthalen-1-yl)ethylideneaminooxymethyl]-phenyl}-4-methyl-1,4-dihydrotetrazol-5-one]
≤ 30%: [1]; 500 ppm | [2]; 500 ppm | [3] | [4] | [5]

CC(=NOCc1c(C)cccc1-n1nnn(C)c1=O)c1ccccc1C [present compound 96, 1-{3-methyl-2-[1-(2-methylphenyl)ethylideneaminooxymethyl]phenyl}-4-methyl-1,4-dihydrotetrazol-5-one]
≤ 30%: [1]; 500 ppm | [2]; 500 ppm | [3] | [4] | [5]

COc1cccc(-n2nnn(C)c2=O)c1CON=C(C)c1ccc2c(c1)CCCC2 [present compound 105, 1-{3-methoxy-2-[1-(5,6,7,8-tetrahydronaphthalen-2-yl)ethylideneaminooxymethyl]phenyl}-4-methyl-1,4-dihydrotetrazol-5-one]
≤ 30%: [1]; 500 ppm | [2]; 500 ppm | [3] | [4] | [5]

CCc1cccc(-n2nnn(C)c2=O)c1CON=C(C)c1ccc2c(c1)CCCC2 [present compound 107, 1-{3-ethyl-2-[1-(5,6,7,8-tetrahydronaphthalen-2-yl)ethylideneaminooxymethyl]phenyl}-4-methyl-1,4-dihydrotetrazol-5-one]
≤ 30%: [1]; 500 ppm | [2]; 500 ppm | [3] | [4] | [5]

CC(=NOCc1c(Br)cccc1-n1nnn(C)c1=O)c1ccc2c(c1)CCCC2 [present compound 108, 1-{3-bromo-2-[1-(5,6,7,8-tetrahydronaphthalen-2-yl)ethylideneaminooxymethyl]phenyl}-4-methyl-1,4-dihydrotetrazol-5-one]
≤ 30%: [1]; 200 ppm | [2]; 500 ppm | [3] | [4] | [5]

CC(=NOCc1c(C)cccc1-n1nnn(C)c1=O)c1cccc(N(C)C)c1 [present compound 109, 1-{2-[1-(3-dimethylaminophenyl)ethylideneaminooxymethyl]-3-methylphenyl}-4-methyl-1,4-dihydrotetrazol-5-one]
≤ 30%: [1]; 500 ppm | [2]; 500 ppm | [3] | [4] | [5]

CC(=NOCc1c(-n2nnn(C)c2=O)cccc1C(F)(F)F)c1ccc2c(c1)CCCC2 [present compound 116, 1-{2-[1-(5,6,7,8-tetrahydronaphthalen-2-yl)ethylideneaminooxymethyl]-3-trifluoromethylphenyl}-4-methyl-1,4-dihydrotetrazol-5-one]
≤ 30%: [1]; 500 ppm | [2]; 200 ppm | [3] | [4] | [5]

CCC(=NOCc1c(C)cccc1-n1nnn(C)c1=O)c1cccc(OC(F)(F)F)c1 [present compound 118, 1-{2-[1-(3-trifluoromethoxyphenyl)propylideneaminooxymethyl]-3-methylphenyl}-4-methyl-1,4-dihydrotetrazol-5-one]
≤ 30%: [1]; 500 ppm | [2]; 500 ppm | [3] | [4] | [5]

CCC(=NOCc1c(CC)cccc1-n1nnn(C)c1=O)c1cccc(OC(F)(F)F)c1 [present compound 119, 1-{3-ethyl-2-[1-(3-trifluoromethoxyphenyl)propylideneaminooxymethyl]phenyl}-4-methyl-1,4-dihydrotetrazol-5-one]
≤ 30%: [1]; 500 ppm | [2]; 500 ppm | [3] | [4] | [5]

CC(=NOCc1c(C)cccc1-n1nnn(C)c1=O)c1ccc(C2CC2)c(C(F)(F)F)c1 [present compound 123, 1-{2-[1-(4-cyclopropyl-3-trifluoromethylphenyl)ethylideneaminooxymethyl]-3-methylphenyl}-4-methyl-1,4-dihydrotetrazol-5-one]
≤ 30%: [1]; 500 ppm | [2]; 500 ppm | [3] | [4] | [5]

CCc1cccc(-n2nnn(C)c2=O)c1CON=C(C)c1cccc2c1CCC2 [present compound 124, 1-[3-ethyl-2-(1-indan-4-ylethylideneaminooxymethyl)phenyl]-4-methyl-1,4-dihydrotetrazol-5-one]
≤ 30%: [1]; 500 ppm | [2]; 500 ppm | [3] | [4] | [5]

CC(=NOCc1c(C2CC2)cccc1-n1nnn(C)c1=O)c1cccc2c1CCC2 [present compound 125, 1-[3-cyclopropyl-2-(1-indan-4-ylethylideneaminooxymethyl)phenyl]-4-methyl-1,4-dihydrotetrazol-5-one]
≤ 30%: [1]; 500 ppm | [2]; 500 ppm | [3] | [4] | [5]

CC(=NOCc1c(C)cccc1-n1nnn(C)c1=O)c1cccc2c1CCCC2 [present compound 127, 1-{3-methyl-2-[1-(5,6,7,8-tetrahydronaphthalen-1-yl)ethylideneaminooxymethyl]phenyl}-4-methyl-1,4-dihydrotetrazol-5-one]
≤ 30%: [1]; 500 ppm | [2]; 500 ppm | [3] | [4] | [5]

From patent publication US9725423B2, “Tetrazolinone compound and applications thereof” (SUMITOMO CHEMICAL COMPANY, LIMITED, priority 2012, dated 2017)
